Reference: paper PMC6901240

Chains of the proteins cited; added tags and fusions are not shown.
UniProt Q7S2I4: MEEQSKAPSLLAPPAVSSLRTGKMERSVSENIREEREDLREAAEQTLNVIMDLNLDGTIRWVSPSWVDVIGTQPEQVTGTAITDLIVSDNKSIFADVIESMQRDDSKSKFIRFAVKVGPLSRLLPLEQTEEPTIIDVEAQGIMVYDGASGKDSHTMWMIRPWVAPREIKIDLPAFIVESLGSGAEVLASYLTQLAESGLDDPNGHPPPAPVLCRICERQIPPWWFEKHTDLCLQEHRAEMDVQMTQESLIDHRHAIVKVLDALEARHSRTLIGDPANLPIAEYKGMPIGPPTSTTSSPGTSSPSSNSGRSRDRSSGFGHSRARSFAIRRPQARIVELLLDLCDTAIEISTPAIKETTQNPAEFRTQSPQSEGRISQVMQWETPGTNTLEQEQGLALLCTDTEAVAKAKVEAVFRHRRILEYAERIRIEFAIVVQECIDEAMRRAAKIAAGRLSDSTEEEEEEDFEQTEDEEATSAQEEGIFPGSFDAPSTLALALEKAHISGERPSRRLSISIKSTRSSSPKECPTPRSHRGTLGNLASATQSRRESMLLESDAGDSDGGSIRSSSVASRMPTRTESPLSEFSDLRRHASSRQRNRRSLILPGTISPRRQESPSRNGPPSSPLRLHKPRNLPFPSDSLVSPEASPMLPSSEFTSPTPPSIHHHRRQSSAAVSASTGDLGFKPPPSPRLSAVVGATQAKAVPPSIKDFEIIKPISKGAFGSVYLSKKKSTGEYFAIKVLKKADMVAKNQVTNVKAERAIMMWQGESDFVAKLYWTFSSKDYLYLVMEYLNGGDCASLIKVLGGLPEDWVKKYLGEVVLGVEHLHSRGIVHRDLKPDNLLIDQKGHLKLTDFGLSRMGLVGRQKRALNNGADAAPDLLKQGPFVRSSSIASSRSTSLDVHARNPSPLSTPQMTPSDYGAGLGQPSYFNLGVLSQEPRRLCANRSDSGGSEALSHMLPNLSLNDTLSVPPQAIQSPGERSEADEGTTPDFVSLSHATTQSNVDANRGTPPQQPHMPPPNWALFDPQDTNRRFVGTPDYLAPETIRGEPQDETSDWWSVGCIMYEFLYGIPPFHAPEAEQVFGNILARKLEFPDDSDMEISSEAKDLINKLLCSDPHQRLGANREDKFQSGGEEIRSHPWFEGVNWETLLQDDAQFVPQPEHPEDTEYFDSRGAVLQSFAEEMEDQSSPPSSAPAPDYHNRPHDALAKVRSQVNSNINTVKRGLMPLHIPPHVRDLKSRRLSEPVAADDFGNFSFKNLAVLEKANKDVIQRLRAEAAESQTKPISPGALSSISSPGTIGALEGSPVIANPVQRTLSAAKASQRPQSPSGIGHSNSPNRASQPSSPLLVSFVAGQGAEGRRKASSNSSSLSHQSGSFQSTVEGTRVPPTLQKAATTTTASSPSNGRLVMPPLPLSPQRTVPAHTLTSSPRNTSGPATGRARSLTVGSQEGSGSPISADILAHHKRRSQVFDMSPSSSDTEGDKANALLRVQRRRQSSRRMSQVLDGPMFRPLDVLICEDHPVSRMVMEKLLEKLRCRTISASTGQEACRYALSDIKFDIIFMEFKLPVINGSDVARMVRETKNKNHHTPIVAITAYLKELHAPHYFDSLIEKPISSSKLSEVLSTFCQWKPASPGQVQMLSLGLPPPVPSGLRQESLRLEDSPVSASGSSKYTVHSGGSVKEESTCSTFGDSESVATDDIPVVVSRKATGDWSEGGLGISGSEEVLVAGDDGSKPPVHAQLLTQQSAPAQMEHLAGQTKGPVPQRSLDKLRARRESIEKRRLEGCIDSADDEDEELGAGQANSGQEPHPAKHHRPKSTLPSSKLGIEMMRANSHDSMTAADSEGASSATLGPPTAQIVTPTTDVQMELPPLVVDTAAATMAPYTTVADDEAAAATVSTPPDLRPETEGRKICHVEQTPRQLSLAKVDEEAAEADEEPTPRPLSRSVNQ

Molecular target: STK-12 (N. crassa (endogenous in N. crassa mycelia)) (UniProt Q7S2I4)
Test: co-IP; total protein of strain Pc-NcIGO-1 grown 2 days in 2% Avicel VMM; anti-STK-12 antiserum 4 h at 4°C, protein A or G magnetic beads; blots with anti-STK-12 and anti-GFP; preimmune serum as control

IGO-1-GFP (from UniProt Q7RW74)
binding: binds

Results are given in words; binding and its absence hold for the method and conditions named. Binding seen in cells or lysates may run through a third protein. A result given as binding can be weak or reduced; the word gives no strength.
